Measurements reported in PubChem BioAssay AID504847 (National Center for Advancing Translational Sciences (NCATS), 2011).
About 3,700 (0.93%) of roughly 400,000 compounds were called active. Inconclusive means that the source gave no clear call. Such entries were picked first, then a sample of the others. Calls come from the whole dose curve; as a rule, active = well fitted inhibition curve with a large enough effect; inconclusive = small, poorly fitted or top-dose-only effect, or another doubt; inactive = no such curve, though single readings can be large or run the other way. Potencies of inconclusive entries are doubtful fits and often do not repeat. Some structures have more than one record in an assay (separate samples or runs), and their calls can disagree.

The chains behind the UniProt entries cited, without tags or fusion partners. Where a name states a change or a piece, a line headed by the entry shows the natural chain unless it says otherwise.
UniProt P11473: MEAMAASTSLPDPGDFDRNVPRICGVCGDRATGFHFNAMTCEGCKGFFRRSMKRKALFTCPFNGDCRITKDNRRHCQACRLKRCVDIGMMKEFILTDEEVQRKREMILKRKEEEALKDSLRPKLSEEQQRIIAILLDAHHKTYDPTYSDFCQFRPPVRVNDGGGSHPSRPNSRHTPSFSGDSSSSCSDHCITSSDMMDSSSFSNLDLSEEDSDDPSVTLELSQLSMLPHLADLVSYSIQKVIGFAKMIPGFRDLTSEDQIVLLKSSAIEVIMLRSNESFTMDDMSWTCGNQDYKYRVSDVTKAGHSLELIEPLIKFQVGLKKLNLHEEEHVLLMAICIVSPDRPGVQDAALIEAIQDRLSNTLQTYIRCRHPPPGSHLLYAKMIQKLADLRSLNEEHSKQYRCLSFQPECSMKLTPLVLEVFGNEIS

target: Vitamin D3 receptor (Homo sapiens) (UniProt P11473); assay: Inhibitors of the vitamin D receptor (VDR): qHTS; details: VDR-SRC2-3 peptide fluorescence polarization, 2 h; max response, negative = inhibition: stronger effect = lower value
Outline: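 Fluorescence polarization assay of small-molecule disruption of VDR binding to coregulator peptide SRC2-3. Compounds and controls pin-transferred, then read after 2 h incubation at ambient room temperature.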
% is set by controls: 0 for no effect and ±100 for the full control effect; potency is the fitted concentration of half-maximal effect.

Row | SMILES | Potency | max response, negative = inhibition
1 | Cc1csc(=O)n1CC(=O)OCC(=O)NNC(=O)c1ccccc1 | inconclusive: 89.1 µM [inhibitor, single point] | –
2 | Cc1ccc(C(=O)c2cn(Cc3ccc(F)cc3)c3nc(C)ccc3c2=O)cc1 | inconclusive: 89.1 µM [inhibitor, partial curve, poor fit] | –
3 | COC(=O)c1ccccc1NC(=O)CSc1nc2sc3c(c2c(=O)[nH]1)CCCC3 | active: 14.1 µM | –
4 | COc1ccc(-c2cc(C(F)(F)F)nc(S(=O)(=O)CCCC(=O)Nc3ccccc3C(F)(F)F)n2)cc1OC | inconclusive: 14.1 µM [inhibitor, partial curve, poor fit] | –
5 | COc1ccc(CC(=O)Nc2ccc(F)c(S(=O)(=O)N3CCOCC3)c2)cc1 | inconclusive: 2.51 µM [inhibitor, partial curve, poor fit] | –
6 | O=C(/C=C/c1ccco1)Nc1cc(Cl)ccc1C(=O)O | inconclusive: 50.1 µM [inhibitor, partial curve, poor fit] | –
7 | Cc1ccc2c(NC(=O)c3ccc(Br)o3)cccc2n1 | – | inactive: -12.2%
8 | OCC1(CCOc2ccccc2)CCN(Cc2cn[nH]c2-c2ccccc2)CC1 | inconclusive: 89.1 µM [inhibitor, single point] | –
9 | CCc1ccc[n+](-c2[nH]c(=O)sc2/C=N/NC([S-])=Nc2ccccc2)c1 | inconclusive: 79.4 µM [inhibitor, partial curve, poor fit] | –
10 | Cc1cc(O)c(C(C)C)cc1N=Cc1cc([N+](=O)[O-])ccc1O | inconclusive: 31.6 µM [inhibitor, partial curve, poor fit] | –
11 | COc1cccc(CNC(=O)C2CCN(Cc3cnn(-c4ccccc4)c3-n3cccc3)CC2)c1 | inconclusive: 89.1 µM [inhibitor, single point] | –
12 | CC(C(=O)N1CCCC1)N(C)CC(=O)Nc1cccc(F)c1 (stereo not given) | inconclusive: 100 µM [inhibitor, single point] | –
13 | CC(C)=CCOc1ccc(/C=C/C(=O)c2ccc(OCC=C(C)C)cc2OCC(=O)O)cc1 | active: 10 µM | –
14 | CCn1c(Cl)c(C=O)s/c1=N\S(=O)(=O)c1ccccc1 | active: 3.16 µM | –
15 | Oc1c(C(c2ccccc2)N2CCOCC2)ccc2ccccc12 (stereo not given) | active: 20 µM | –
16 | N#CC1=C(N)C(C#N)(C#N)C(c2ccc[nH]2)C2CCCC=C12 (stereo not given) | – | inactive: -32.2%
17 | CCOc1ccc(OCC)c(NC(=O)CN(c2ccc(C)cc2)S(=O)(=O)c2c(C)n[nH]c2C)c1 | inconclusive: 89.1 µM [inhibitor, partial curve] | –
18 | CN1C(=O)NC(c2ccc(O)cc2)C2=C1CN(c1ccccc1)C2=O (stereo not given) | inconclusive: 39.8 µM [inhibitor, single point] | –
19 | Cc1cccc(NC(=S)NNC(=S)NCc2ccccc2)c1 | active: 89.1 µM | –
20 | Oc1ccc(C2CNCCc3c2cc(O)c(O)c3Cl)cc1 (stereo not given) | – | inactive: 1.58% [middle of 4 runs]

Part of the list above in order of molecular weight, descending.
Row | SMILES | Potency | max response, negative = inhibition
17 | CCOc1ccc(OCC)c(NC(=O)CN(c2ccc(C)cc2)S(=O)(=O)c2c(C)n[nH]c2C)c1 | inconclusive: 89.1 µM [inhibitor, partial curve] | –
11 | COc1cccc(CNC(=O)C2CCN(Cc3cnn(-c4ccccc4)c3-n3cccc3)CC2)c1 | inconclusive: 89.1 µM [inhibitor, single point] | –
13 | CC(C)=CCOc1ccc(/C=C/C(=O)c2ccc(OCC=C(C)C)cc2OCC(=O)O)cc1 | active: 10 µM | –
3 | COC(=O)c1ccccc1NC(=O)CSc1nc2sc3c(c2c(=O)[nH]1)CCCC3 | active: 14.1 µM | –
5 | COc1ccc(CC(=O)Nc2ccc(F)c(S(=O)(=O)N3CCOCC3)c2)cc1 | inconclusive: 2.51 µM [inhibitor, partial curve, poor fit] | –
9 | CCc1ccc[n+](-c2[nH]c(=O)sc2/C=N/NC([S-])=Nc2ccccc2)c1 | inconclusive: 79.4 µM [inhibitor, partial curve, poor fit] | –
1 | Cc1csc(=O)n1CC(=O)OCC(=O)NNC(=O)c1ccccc1 | inconclusive: 89.1 µM [inhibitor, single point] | –
10 | Cc1cc(O)c(C(C)C)cc1N=Cc1cc([N+](=O)[O-])ccc1O | inconclusive: 31.6 µM [inhibitor, partial curve, poor fit] | –
6 | O=C(/C=C/c1ccco1)Nc1cc(Cl)ccc1C(=O)O | inconclusive: 50.1 µM [inhibitor, partial curve, poor fit] | –
16 | N#CC1=C(N)C(C#N)(C#N)C(c2ccc[nH]2)C2CCCC=C12 (stereo not given) | – | inactive: -32.2%

(cont.)

Row | SMILES | Potency | max response, negative = inhibition
21 | CC1CC(C)(C)CC2(C1)NC(=S)N(c1ccccc1)N2 (stereo not given) | inconclusive: 79.4 µM [inhibitor, partial curve, poor fit] | –
22 | COC(=O)C1=C(C)NC(C)=C(C(=O)OC)C1c1ccc(-c2cccc(Cl)c2Cl)o1 | inconclusive: 89.1 µM [inhibitor, single point] | –
23 | Oc1c(C(Nc2cccc(C(F)(F)F)c2)c2cccnc2)ccc2cccnc12 (stereo not given) | inconclusive: 50.1 µM [inhibitor, partial curve, poor fit] | –
24 | c1ccc(CN=C2NN=C(c3ccccc3)CS2)cc1 | inconclusive: 50.1 µM [inhibitor, partial curve, poor fit] | –
25 | COc1ccc(/C=C2\C(=N)N3N=C(CC(=O)N4CCOCC4)SC3=NC2=O)cc1 | – | inactive: -3.65%
26 | Cc1cccc(N2CCN(C(=O)CCS(=O)(=O)c3ccc4c(c3)NC(=O)CO4)CC2)c1C | inconclusive: 25.1 µM [inhibitor, partial curve] | –
27 | COc1ccc(C(=O)Nc2ccc(S(=O)(=O)N3CCCC3)cc2)cc1 | inconclusive: 79.4 µM [inhibitor, single point] | –
28 | O=[N+]([O-])c1ccc(N2CCN(C(=S)c3cccc([N+](=O)[O-])c3)CC2)cc1 | inconclusive: 79.4 µM [inhibitor, partial curve, poor fit] | –
29 | N#C/C(=C\c1ccc(O)c(O)c1)C(=O)Nc1ccccc1 | active: 12.6 µM | –
30 | CCN1CCC(O)(/C=C/c2ccc(C(C)C)cc2)C(C(=O)/C=C/c2ccc(C(C)C)cc2)C1 (stereo not given) | active: 39.8 µM | –
31 | CCOC(=O)C1(CCCc2ccccc2)CCN(C(=O)C2=C(C)OCCO2)CC1 | inconclusive: 100 µM [inhibitor, single point] | –
32 | Cc1cccc(NC(=O)/C(C#N)=C\c2ccc(C(=O)O)cc2)c1 | inconclusive: 89.1 µM [inhibitor, single point] | –
33 | O=C1c2ccccc2C(=O)C12OC2c1cccc2ccccc12 (stereo not given) | active: 12.6 µM | –
34 | Cc1cccc(Cc2c(C)nc3c(C(=O)NCc4ccco4)cnn3c2C)c1 | inconclusive: 79.4 µM [inhibitor, partial curve] | –
35 | COc1ccc(CN2CCNC(=O)C2CC(=O)NCCc2c[nH]c3ccccc23)c(OC)c1 (stereo not given) | inconclusive: 89.1 µM [inhibitor, single point] | –
36 | CCOC(=O)c1c(C)[nH]c(=S)c(C#N)c1-c1ccc(Cl)cc1 | inconclusive: 100 µM [inhibitor, single point] | –
37 | CCOc1cccc(-c2nnc3sc(C4CCCCC4)nn23)c1 | inconclusive: 70.8 µM [inhibitor, partial curve] | –
38 | COc1ccc(-c2cc(C(F)(F)F)nc(S(=O)(=O)CCC(=O)N3CCOCC3)n2)cc1 | inconclusive: 70.8 µM [inhibitor, partial curve, poor fit] | –
39 | O=C(Nc1ccc(S(=O)(=O)Nc2ncccn2)cc1)C1=NN(c2ccccc2)C(=O)CC1 | inconclusive: 89.1 µM [inhibitor, single point] | –
40 | CCOc1ccccc1C(=O)Nc1ccc(C(=O)c2ccccc2)cc1 | inconclusive: 1.78 µM [inhibitor, partial curve, poor fit] | –
